Experimental data published in US20150158912A1.
Changes are numbered by the printed parent chain. Names and notes keep the numbering of the source. No constants are given. Whether binding was seen depends on the method and setting. Binding seen in cells or lysates may run through a third protein. Some results given as binding are weak or reduced against the parent protein; the word gives no strength. Where a sequence is shown, tags or fusion partners need not be part of it.

Key:
[1] = target: T1, V5-tagged human IL-17RA, wild type (human) (UniProt Q96F46); assay: co-immunoprecipitation, HeLa cells (IP anti-V5, blot anti-FLAG)
T1 sequence (looked up): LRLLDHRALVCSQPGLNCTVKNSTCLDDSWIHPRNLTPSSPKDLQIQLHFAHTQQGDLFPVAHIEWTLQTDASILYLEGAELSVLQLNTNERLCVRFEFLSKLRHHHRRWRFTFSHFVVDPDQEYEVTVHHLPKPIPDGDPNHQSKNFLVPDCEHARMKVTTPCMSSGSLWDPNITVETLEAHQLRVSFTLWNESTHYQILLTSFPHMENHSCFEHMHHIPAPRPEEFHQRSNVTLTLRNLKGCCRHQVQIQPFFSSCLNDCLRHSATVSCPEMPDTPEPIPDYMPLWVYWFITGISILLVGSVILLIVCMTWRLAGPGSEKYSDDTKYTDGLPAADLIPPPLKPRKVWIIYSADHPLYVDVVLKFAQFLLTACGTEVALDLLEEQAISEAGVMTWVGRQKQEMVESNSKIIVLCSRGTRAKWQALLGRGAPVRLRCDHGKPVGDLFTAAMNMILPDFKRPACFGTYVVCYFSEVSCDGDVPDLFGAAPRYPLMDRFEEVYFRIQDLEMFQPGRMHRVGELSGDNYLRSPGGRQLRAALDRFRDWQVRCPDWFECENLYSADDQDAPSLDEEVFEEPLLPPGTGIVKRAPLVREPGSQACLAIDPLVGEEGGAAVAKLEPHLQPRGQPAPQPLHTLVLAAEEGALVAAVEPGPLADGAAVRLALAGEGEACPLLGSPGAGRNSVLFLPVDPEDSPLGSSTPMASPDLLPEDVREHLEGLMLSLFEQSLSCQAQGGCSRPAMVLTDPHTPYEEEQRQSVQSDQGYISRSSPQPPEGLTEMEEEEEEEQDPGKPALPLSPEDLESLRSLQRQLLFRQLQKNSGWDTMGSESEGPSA

[2] = target: T2, Act1 in IL-17RB-deficient MEFs reconstituted with Myc-tagged IL-17RB (mouse (cells are mouse embryonic fibroblasts)) (UniProt Q8N7N6); assay: co-immunoprecipitation in reconstituted IL-17RB-deficient MEFs (IP anti-Myc)
T2 sequence (looked up): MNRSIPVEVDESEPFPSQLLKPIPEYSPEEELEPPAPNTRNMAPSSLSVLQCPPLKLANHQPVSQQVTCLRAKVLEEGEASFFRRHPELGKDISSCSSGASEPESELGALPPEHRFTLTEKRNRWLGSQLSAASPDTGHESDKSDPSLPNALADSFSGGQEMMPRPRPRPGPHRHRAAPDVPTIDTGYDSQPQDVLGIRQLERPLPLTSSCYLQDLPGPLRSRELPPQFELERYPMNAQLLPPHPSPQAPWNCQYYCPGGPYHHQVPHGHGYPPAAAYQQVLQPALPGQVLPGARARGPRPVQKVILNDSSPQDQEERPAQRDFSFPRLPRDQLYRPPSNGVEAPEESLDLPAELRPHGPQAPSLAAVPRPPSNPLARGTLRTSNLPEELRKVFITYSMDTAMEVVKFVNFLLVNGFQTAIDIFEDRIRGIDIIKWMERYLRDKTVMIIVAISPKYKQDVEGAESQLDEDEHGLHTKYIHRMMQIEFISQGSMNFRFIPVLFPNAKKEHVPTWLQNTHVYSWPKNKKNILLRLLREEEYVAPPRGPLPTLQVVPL

B1: FLAG-tagged mouse Act1 (mAct1), wild type (protein, UniProt Q8N7N6 1-555, looked up)
chain: T2 sequence (looked up)
[1]
  binding: binds

B2: Myc-tagged mouse IL-17RB point mutant Q417R (receptor, UniProt Q9JIP3 18-499, looked up)
chain: REPTIQCGSETGPSPEWMVQHTLTPGDLRDLQVELVKTSVAAEEFSILMNISWILRADASIRLLKATKICVSGKNNMNSYSCVRCNYTEAFQSQTRPSGGKWTFSYVGFPVELSTLYLISAHNIPNANMNEDSPSLSVNFTSPGCLNHVMKYKKQCTEAGSLWDPDITACKKNEKMVEVNFTTNPLGNRYTILIQRDTTLGFSRVLENKLMRTSVAIPVTEESEGAVVQLTPYLHTCGNDCIRREGTVVLCSETSAPIPPDDNRRMLGGWLPLFLVLLVAVWVLAAGIYLTWRQGRSTKTSFPISTMLLPLIKVLVVYPSEICFHHTVCRFTDFLQNYCRSEVILEKWQKKKIAEMGPVQWLTTQKQAADKVVFLLPSDVPTLCDSACGHNEGSARENSRDLFPLAFNLFCSDFSSQTHLHKYLVVYLGGADLKGDYNALSVCPQYHLMKDATAFHTELLKATQSMSVKKRSQACHDSCSPL
[2]
  binding: binds

B3: Myc-tagged mouse IL-17RB point mutant D418V (receptor, UniProt Q9JIP3 18-499, looked up)
chain: B2 chain with R400Q, D401V
[2]
  binding: binds

B4: Myc-tagged mouse IL-17RB point mutant P421R (receptor, UniProt Q9JIP3 18-499, looked up)
chain: B2 chain with R400Q, P404R
[2]
  binding: binds
